Experimental data as given in PubChem BioAssay AID1439 (NMMLSC, 2008).
The campaign covered roughly 220,000 compounds. About 770 (0.35%) were called active. This list was built around the results that the source calls inconclusive (neither active nor inactive); the mix of calls is not that of the screen. No stated cut-off is given here; in the data, active means binding response below about 49% or above about 150%; inconclusive means no clear call, values can overlap the other calls; inactive means in between.

Protein sequences, listed by entry. Tags and fused reporters are not part of them.
UniProt P09471, whole entry, looked up: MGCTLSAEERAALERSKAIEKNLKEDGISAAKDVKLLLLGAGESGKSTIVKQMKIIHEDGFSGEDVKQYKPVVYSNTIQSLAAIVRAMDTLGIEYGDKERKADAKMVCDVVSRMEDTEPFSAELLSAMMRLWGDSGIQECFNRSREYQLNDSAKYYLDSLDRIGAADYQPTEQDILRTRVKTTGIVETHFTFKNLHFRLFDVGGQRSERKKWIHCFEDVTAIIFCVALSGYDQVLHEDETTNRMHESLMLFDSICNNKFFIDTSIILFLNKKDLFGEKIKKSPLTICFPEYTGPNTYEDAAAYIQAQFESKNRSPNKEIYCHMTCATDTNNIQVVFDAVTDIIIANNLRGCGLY

Each molecule was assayed against Guanine nucleotide-binding protein G(o) subunit alpha (Homo sapiens) (UniProt P09471) (assay: RGS7-Galphao binding modulators, primary screen, biochemical, multiplexed bead flow cytometry (AID 1439;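 further: fluorescent Galphao held in activated GDP-AlF4 state binding bead-coupled RGS7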)). Conditions: at 10 µM, actives lie on both sides.

Row | Compound | binding response (% of control)
1 | COc1ccc(C(=O)NC(=S)NNC(=O)COc2ccccc2)cc1 | inconclusive: 73.8%
2 | COCCNC(=S)N=Nc1c(O)[nH]c2c(C)cc(C)cc12 | inconclusive: 120%
3 | S=C(NCc1ccncc1)NC1CCCCC1 | inactive: 100%
4 | Cc1cccc(-n2c(SCC(=O)O)nc3sc4c(c3c2=O)CCC4)c1 | inconclusive: 127%
5 | Cc1cccc(NC(=S)NC(C)(C)CC(C)(C)C)c1 | inconclusive: 101%
6 | Nc1ccccc1SSc1ccccc1N | inconclusive: 54%
7 | CC(/C=N/Nc1ncc(C)c(=O)[nH]1)=C\c1ccccc1 | inconclusive: 83.6%
8 | O=C(C1CCN(S(=O)(=O)c2cccc3cccnc23)CC1)N1CCN(c2ccccc2)CC1 | inactive: 100%
9 | Nc1nc(-c2c[nH]c3ccccc23)cs1 | inactive: 102%
10 | O=C(O)c1ccccc1NC(=O)N1CCOCC1 | inactive: 100%
11 | CCNc1ccccc1C(=O)O | inconclusive: 62.7%
12 | CC(=O)N1CCOCCOCCN(C(C)=O)CCOCC1 | inactive: 100%
13 | CCSc1nc(-c2ccccc2)c(-c2ccccc2)n1CC(O)CO (stereo not given) | inconclusive: 112%
14 | Cc1c(NC(=O)C(C)OC(=O)c2cccc(S(=O)(=O)N3CCOCC3)c2)c(=O)n(-c2ccccc2)n1C (stereo not given) | inconclusive: 112%
15 | CC(C)CCN1CCC(N)=NC1=O | active: 217% [activator]
16 | C=CCc1cccc2cc(C(=O)NC3CCCC3)c(=O)oc12 | inconclusive: 100%
17 | Cc1ccc(SCc2c(C(=O)N/N=C/c3ccccc3)nnn2-c2nonc2N)cc1 | inconclusive: 60.1%
18 | CCCCCCC(C)n1[nH]c(=O)cc1N (stereo not given) | inconclusive: -274%
19 | N#Cc1c(F)cccc1NCc1cccs1 | inconclusive: 115%
20 | O=C(CCC(=O)c1cccs1)NC1CCCCCC1 | inconclusive: 79.3%

Row | Compound | binding response (% of control)
21 | CCCCCCN(C(=O)CCCCCN1C(=O)NC(c2ccc(-c3ccccc3)cc2)C(C(=O)OCc2ccccc2)=C1C)C(C(=O)NCCCC)C1CCCCC1 (stereo not given) | inconclusive: 103%
22 | O=C(c1ccoc1)N1CCC2(CC1)Oc1ccc(F)cc1C(=O)C21CC(c2ccccc2)=NO1 (stereo not given) | inconclusive: 97%
23 | CCOC(=O)CN(C(=O)CSc1nnc2c(n1)[nH]c1c(C)cc(C)cc12)c1ccccc1 | inactive: 105%
24 | Cn1ccsc1=NC(=O)c1ccccc1F | inconclusive: 98%
25 | CSc1ncccc1C(=O)NC1CCCCCC1 | inconclusive: 99.2%
26 | Cc1ccc(-c2ccc(S(=O)(=O)NCC3CCCO3)cc2)cc1 (stereo not given) | inactive: 101%
27 | Cc1ccc(NC(=O)CN2C(=O)C3CC=CCC3C2=O)cc1S(=O)(=O)N1CCOCC1 (stereo not given) | inconclusive: 87.6%
28 | COc1ccc(NC(=O)c2cc(C)nc3ccccc23)c(OC)c1 | inconclusive: 141%
29 | O=c1c2c3c(sc2nc(NCCOCCO)n1Cc1ccco1)CCCCC3 | inconclusive: -151%
30 | COc1ccc(CNC(=O)CCC(=O)N2CCN(S(=O)(=O)c3ccc(Cl)cc3)CC2)cc1 | inconclusive: 94.6%
31 | COc1ccc(/C=N/NC(=O)c2ccn[nH]2)cc1Cn1cc([N+](=O)[O-])cn1 | inconclusive: 92.3%
32 | Cn1cc(SCC(=O)N2CCCc3ccccc32)c2ccccc21 | inactive: 97.3%
33 | O=C(NCCC1=CCCCC1)C1CCN(C(=O)Cc2ccccc2)CC1 | inactive: 117%
34 | CCc1nn2c(=O)cc(COc3ccc(/C=C4\C(=N)N5N=C(CC(C)C)SC5=NC4=O)cc3)nc2s1 | inconclusive: 42%
35 | Nc1nnc(-c2ccc(Cl)cc2)o1 | inconclusive: 124%
36 | O=C(Nc1ccc2oc(=O)ccc2c1)c1ccc(-c2cccc([N+](=O)[O-])c2)o1 | inconclusive: 38.7%
37 | CCOC(=O)c1c(CSC(=N)N)n(-c2ccccc2)c2cc(Br)c(OC(C)=O)cc12 | inconclusive: 250%
38 | CC1(C)NC(=O)N(CCOCCOc2ccccc2-c2ccccc2)C1=O | inactive: 104%
39 | Cn1c(-c2ccc[nH]c2=O)nc2cc(Cl)ccc21 | inactive: 95.3%
40 | O=C(c1ccoc1)N1CCC2(CC1)Oc1ccc(Cl)cc1C(=O)C21CC(c2ccc(Cl)cc2)=NO1 (stereo not given) | inconclusive: 92.2%

In the list so far, these contain fluorine.
Row | Compound | binding response (% of control)
19 | N#Cc1c(F)cccc1NCc1cccs1 | inconclusive: 115%
22 | O=C(c1ccoc1)N1CCC2(CC1)Oc1ccc(F)cc1C(=O)C21CC(c2ccccc2)=NO1 (stereo not given) | inconclusive: 97%
24 | Cn1ccsc1=NC(=O)c1ccccc1F | inconclusive: 98%

Some of the entries so far, as labelled records.
Nc1ccccc1SSc1ccccc1N
  binding response (% of control): inconclusive: 54%
CC(/C=N/Nc1ncc(C)c(=O)[nH]1)=C\c1ccccc1
  binding response (% of control): inconclusive: 83.6%

(listing goes on)

Row | Compound | binding response (% of control)
41 | O=C(CCC(=O)Nc1ccccc1)NNS(=O)(=O)c1ccccc1[N+](=O)[O-] | inconclusive: 110%
42 | O=C(/C=C/c1ccccn1)c1cc(Br)ccc1O | inconclusive: 98.6%
43 | c1ccc(-c2noc(CN3CCc4sccc4C3)n2)cc1 | inconclusive: 99.4%
44 | Cc1ccccc1Cn1c(=O)[nH]c2ccccc21 | inconclusive: 97.7%
45 | COc1cc(/C=N/N=C(\N)c2nonc2N)cc(OC)c1O | inconclusive: 118%
46 | CCC(C)NS(=O)(=O)c1ccc(OCC(=O)NCc2cccnc2)cc1 (stereo not given) | inactive: 104%
47 | COc1ccc(C2NC(c3ccc(OC)cc3OC)C(C)C(=O)C2C)c(OC)c1 (stereo not given) | inconclusive: 95.1%
48 | O=C(CNC1CCCC1)Nc1cc(Cl)ccc1[N+](=O)[O-] | inconclusive: 187%
49 | O=C(CCCCCn1c(=S)[nH]c2ccc(Br)cc2c1=O)NCC1CCCO1 (stereo not given) | inactive: 98.6%
50 | CC(=O)c1cc(C#N)c(NCCCN(C)C)nc1C | inconclusive: 101%
51 | CCOc1ccccc1-n1nnnc1SC(C)C(=O)OC (stereo not given) | inconclusive: 105%
52 | CCC(C)(C)n1nnnc1CN1CCN(c2ccc(OC)cc2)CC1 | inactive: 107%
53 | S=C(Nc1cccc2ccccc12)NC1CCCCC1 | inactive: 102%
54 | CCOC(=O)CCCc1c[nH]c2ccccc12 | inactive: 101%
55 | COc1ccc(-n2cc(CNCc3cnc4ccccn34)c(-c3cccc(F)c3)n2)cc1 | inactive: 87.9%
56 | Cc1ccc(CN(Cc2ccco2)C(=S)Nc2ccccc2C)cc1 | inconclusive: 124%
57 | COCCCNC(=O)c1ccc(Cn2c(=O)c3ccccc3n(CC(=O)NCc3ccco3)c2=O)cc1 | inconclusive: 91.7%
58 | Cn1c(-c2ccccc2)nc2cnccc21 | inconclusive: 104%
59 | O=S(=O)(NCc1cccc(C(F)(F)F)c1)NCc1ccccc1F | inactive: 99%
60 | Cc1ccc(NC(=O)COC(=O)c2cccc(N3C(=O)c4ccccc4C3=O)c2)cc1 | inconclusive: 126%
